PubChem BioAssay AID743121 – NCATS – 2013
Purpose: 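Partners whose loss is lethal together with topoisomerase I blockade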 (primary screen). Cell system: MDA-MB-231 cells, a human breast cancer line. Reagent: single siRNA against human genes, 20 nM siRNA (0.8 pmol per well). Time to read-out: 120 h (drug added 48 h after transfection, read 72 h later). Conditions: camptothecin 20 nM (about EC30) for 72 h; vehicle 0.1% DMSO in parallel plates. Measurement: 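CellTiter-Glo ATP signal, scaled to control siRNA as percent viability; sensitisation given as log2 of untreated divided by camptothecin-treated viability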. Direction: log2 vehicle/camptothecin viability: higher = stronger sensitisation to camptothecin; viability with camptothecin: higher = more viable cells. Units: viability with camptothecin in % of control. Hit rule: 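Each gene scored by redundant siRNA activity (RSA) over its individual siRNA ratios; a gene is called active at p < 0.001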.
The deposit covers about 26,000 reagents; shown is an unselected part. Of all reagents, 167 (0.63%) got an active call. 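Calls are per gene from RSA p-values that are not deposited; an individual active-marked siRNA can sensitise only weakly.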 Further read-outs or replicates are left out here.

After knock-down of CSF2RA [SID164360000], the screen gave log2 vehicle/camptothecin viability 0.47; viability with camptothecin 34.7; inactive.
Knock-down of CSF2RA [SID164360001] came out at: log2 vehicle/camptothecin viability 0.181; viability with camptothecin 76.6; inactive.
For CSF2RA [SID164360003], the entry reads log2 vehicle/camptothecin viability -0.0504; viability with camptothecin 104; inactive.
CSF2RA [SID164360005] gave log2 vehicle/camptothecin viability -0.000555; viability with camptothecin 95.9; inactive.
SERPINE2 [SID164380647] gave log2 vehicle/camptothecin viability -0.0255; viability with camptothecin 98.5; inactive.
SERPINE2 [SID164380649] showed log2 vehicle/camptothecin viability -0.527; viability with camptothecin 65.9; inactive.
For SERPINE2 [SID164380650], the entry reads log2 vehicle/camptothecin viability 0.516; viability with camptothecin 67; inactive.
SERPINE2 [SID164380651] showed log2 vehicle/camptothecin viability 0.393; viability with camptothecin 55.6; inactive.
HMGA1 [SID164369315] scored log2 vehicle/camptothecin viability 0.00842; viability with camptothecin 48.9; inactive.
Against HMGA1 [SID164369318], the values are log2 vehicle/camptothecin viability -0.243; viability with camptothecin 84.8; inactive.
With knock-down of HMGA1 [SID164369319], the record shows log2 vehicle/camptothecin viability -0.197; viability with camptothecin 26.1; inactive.
HMGA1 [SID164736352] showed log2 vehicle/camptothecin viability -0.337; viability with camptothecin 79.5; inactive.
Knock-down of MAFG [SID164374540] resulted in: log2 vehicle/camptothecin viability -0.0842; viability with camptothecin 99.4; inactive.
With knock-down of MAFG [SID174316015] the results were log2 vehicle/camptothecin viability 1.03; viability with camptothecin 18.6; inactive.
MAFG [SID174316016] showed log2 vehicle/camptothecin viability 0.0119; viability with camptothecin 101; inactive.
Depletion of MAFG [SID174316017] gave: log2 vehicle/camptothecin viability 0.0097; viability with camptothecin 64.8; inactive.
Silencing of BMP2K [SID164485300] came out at: log2 vehicle/camptothecin viability 0.112; viability with camptothecin 114; inactive.
Knock-down of BMP2K [SID164485301] came out at: log2 vehicle/camptothecin viability -0.0193; viability with camptothecin 98; inactive.
Against BMP2K [SID164485304] the deposit lists log2 vehicle/camptothecin viability 0.393; viability with camptothecin 13.8; inactive.
BMP2K [SID164485311] showed log2 vehicle/camptothecin viability -0.118; viability with camptothecin 84.9; inactive.
For FEN1 [SID164364578], the entry reads log2 vehicle/camptothecin viability -0.347; viability with camptothecin 119; inactive.
FEN1 [SID164364580] showed log2 vehicle/camptothecin viability -0.604; viability with camptothecin 81.9; inactive.
Knock-down of FEN1 [SID164364581] resulted in: log2 vehicle/camptothecin viability 0.109; viability with camptothecin 67; inactive.
With knock-down of FEN1 [SID164364586], the screen gave log2 vehicle/camptothecin viability -0.0761; viability with camptothecin 104; inactive.
After knock-down of PRSS12 [SID164397922], the screen gave log2 vehicle/camptothecin viability 0.0493; viability with camptothecin 78.1; inactive.
Against PRSS12 [SID164397923], the values are log2 vehicle/camptothecin viability -0.0984; viability with camptothecin 96; inactive.
PRSS12 [SID164397924] showed log2 vehicle/camptothecin viability -0.194; viability with camptothecin 48.2; inactive.
Knock-down of C1D [SID164410997] came out at: log2 vehicle/camptothecin viability -0.0499; viability with camptothecin 93.6; inactive.
Against C1D [SID164410998], the entry reads log2 vehicle/camptothecin viability -0.125; viability with camptothecin 108; inactive.
Against C1D [SID164411001] the deposit lists log2 vehicle/camptothecin viability 0.218; viability with camptothecin 59.9; inactive.
Against C1D [SID164411002], the values are log2 vehicle/camptothecin viability -0.198; viability with camptothecin 31.3; inactive.
TUBB6 [SID164545844] gave log2 vehicle/camptothecin viability -0.423; viability with camptothecin 40.8; inactive.
Depletion of TUBB6 [SID164545845] gave: log2 vehicle/camptothecin viability 0.31; viability with camptothecin 40.4; inactive.
For TUBB6 [SID164545846], the entry reads log2 vehicle/camptothecin viability -0.474; viability with camptothecin 75.6; inactive.
TUBB6 [SID164545847] gave log2 vehicle/camptothecin viability -0.341; viability with camptothecin 120; inactive.

2 entries from above, arranged by “viability with camptothecin”, lowest first:
MAFG [SID174316017] | log2 vehicle/camptothecin viability: 0.0097; viability with camptothecin: 64.8; outcome: inactive
BMP2K [SID164485300] | log2 vehicle/camptothecin viability: 0.112; viability with camptothecin: 114; outcome: inactive
